Reference: PubChem BioAssay AID1259254 (NCATS, 2017)

Screen: 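Gene knock-downs that lead to re-replication, shown by excess G2 DNA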 (primary screen)
Cell system: human HCT116 colorectal cancer cells
Reagent: single siRNA against human genes
Time to read-out: 3 days
Read-out: 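Imaged Hoechst DNA stain sorts each cell into a cycle phase by DNA amount; per plate, G2 fraction set to 0% for non-targeting and 100% for GMNN siRNA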
Reading the numbers: G2 robust z-score and G2 cells, % of GMNN control: higher = more G2 cells, more excess DNA replication
Rule for the call: 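An siRNA counts as active if its G2 robust z-score lies at least 5 MADs above the screen median; here such calls match roughly 38% of GMNN control or more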
Shown is an unselected part of about 59,000 reagents tested. About 1,550 of them (2.6%) were called active. 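G2 share is only a proxy for re-replication; each gene was hit by three separate siRNAs, and active genes were retested.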 The numbers tell different reagents against one gene apart. Not all columns of the deposit are shown. Not stated in the record: the amount of reagent.

TVP23A (trans-golgi network vesicle protein 23 homolog A) #1 scored G2 robust z-score 0.94; G2 cells, % of GMNN control 9.58; inactive.
TVP23A (trans-golgi network vesicle protein 23 homolog A) #2 gave G2 robust z-score 0.29; G2 cells, % of GMNN control 5.01; inactive.
TVP23A (trans-golgi network vesicle protein 23 homolog A) #3 scored G2 robust z-score -0.497; G2 cells, % of GMNN control -0.531; inactive.
Silencing of IL17RB (interleukin 17 receptor B) #1 came out at: G2 robust z-score -0.413; G2 cells, % of GMNN control 0.0643; inactive.
After knock-down of IL17RB (interleukin 17 receptor B) #2 the results were G2 robust z-score -1.22; G2 cells, % of GMNN control -5.62; inactive.
IL17RB (interleukin 17 receptor B) #3 showed G2 robust z-score -0.583; G2 cells, % of GMNN control -1.13; inactive.

A stretch of the results above, as a working copy:
IL17RB (interleukin 17 receptor B) #2 — G2 robust z-score = -1.22; G2 cells, % of GMNN control = -5.62; Call = inactive
IL17RB (interleukin 17 receptor B) #3 — G2 robust z-score = -0.583; G2 cells, % of GMNN control = -1.13; Call = inactive

The results go on.
Against SETD5 (SET domain containing 5) #1, the values are G2 robust z-score 0.312; G2 cells, % of GMNN control 5.17; inactive.
With knock-down of SETD5 (SET domain containing 5) #2 the results were G2 robust z-score -0.339; G2 cells, % of GMNN control 0.58; inactive.
Depletion of SETD5 (SET domain containing 5) #3 gave: G2 robust z-score 1.27; G2 cells, % of GMNN control 11.9; inactive.
Knock-down of LRRC23 (leucine rich repeat containing 23) #1 resulted in: G2 robust z-score 0.843; G2 cells, % of GMNN control 8.9; inactive.
After knock-down of LRRC23 (leucine rich repeat containing 23) #2, the screen gave G2 robust z-score -0.275; G2 cells, % of GMNN control 1.04; inactive.
For LRRC23 (leucine rich repeat containing 23) #3, the values are G2 robust z-score -0.214; G2 cells, % of GMNN control 1.46; inactive.
